Assay results: PubChem BioAssay AID1487 (National Center for Advancing Translational Sciences (NCATS), 2009)
Several values for one entry are separate records, joined by “and”; a condition that tells them apart may be missing. Equal entries are not always repeated. The list shows a part of the results. The main result of the screen is listed elsewhere. These columns were measured beside it and carry no call. Compounds called inactive in the main read-out are mostly missing here. The note in brackets gives the kind of curve behind each potency; many fits are weak.

Test: qHTS Assay for Modulators of Lamin A Splicing
Conditions: HeLa LMNA splicing GFP/RFP minigene ratio, 48 h
Method in brief: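 S3 HeLa stable clones carrying a lamin A-EGFP splicing minigene plus DsRed2 were seeded at 600 cells/well in Opti-MEM with 2% FBS, pin-dosed and incubated 48 h at 37°C. Acumen cytometry (488 nm) gave the GFP/RFP total-intensity ratio.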

[1] = measured here: GFP splicing reporter channel
[2] = measured here: RFP viability control channel

Row | SMILES | AC50 [1] | AC50 [2]
1 | COc1ccc(N=C2S/C(=C\c3ccc(N4CCOCC4)o3)C(=O)N2CCc2c[nH]c3ccccc23)cc1 | 10 µM [falling, partial curve] | 7.08 µM [falling, partial curve]
2 | CC(C)(C)OC(=O)N1CCC(c2c(C(=O)NCCN3CCC(Cc4ccccc4)CC3)cnn2-c2ccccc2)CC1 | 20 µM [falling, single point] | 22.4 µM [falling, single point]
3 | CCc1ccc(NC(=O)N2CC(C)Oc3ccc(C)cc32)cc1 (configuration not stated) | 12.6 µM [falling, partial curve, poor fit] | 12.6 µM [falling, partial curve, poor fit]
4 | Cc1nc(-c2ccccc2)cn2c1nc1ccccc12 |  | 0.0501 µM [rising, full curve, poor fit]
5 | O=C(O)/C=C/C(=O)N1CCN(c2ccc(F)cc2)CC1 |  | 0.00316 µM [rising, full curve, poor fit]
6 | O=S(=O)(c1ccc(Cl)cc1)N1CCN=C1SCc1cccc(Cl)c1 | 35.5 µM [rising, single point] | 35.5 µM [rising, partial curve]
7 | O=C(OCn1nnc2ccccc2c1=O)c1ccc2ncsc2c1 |  | 4.47 µM [rising, single point]
8 | Cc1cccc(N2CCN(C(=S)NCc3ccco3)CC2)c1C | 35.5 µM [rising, single point] | 35.5 µM [rising, single point]
9 | OC1CCN(c2ncnc3nc[nH]c23)CC1 | 10 µM [rising, single point] | 11.2 µM [rising, partial curve]
10 | O=C(c1cccc(Cl)c1)C1CCCN(Cc2ccc(N3CCNC3=O)cc2)C1 (configuration not stated) |  | 5.01 µM [falling, partial curve, poor fit]
11 | CC(C)C1C(C#N)=C(N)Oc2n[nH]c(-c3ccc4ccccc4c3)c21 (configuration not stated) |  | 3.55 µM [rising, full curve]
12 | CC(CCc1ccc(O)cc1)NCCc1ccc(O)c(O)c1 (configuration not stated) | 891 nM [falling, single point] and 35.5 µM [falling, single point] | 35.5 µM [falling, single point]
13 | CC(C)S(=O)(=O)c1csc(NC(=O)Nc2cc(Cl)ccc2Cl)c1Cl | 35.5 µM [falling, single point] | 25.1 µM [falling, partial curve, poor fit]
14 | COC(=O)c1ccc2c(c1)C(C)(C)C(/C=C/c1ccccc1O)=[N+]2C | 3.16 µM [falling, full curve] | 6.31 µM [falling, full curve]
15 | COc1cccc(CNc2ccc(S(N)(=O)=O)cc2)c1OC | 11.2 µM [rising, single point] | 17.8 µM [rising, single point]
16 | COc1ccc(CNC(=O)COCc2cc(-c3cccs3)on2)cc1 |  | 0.02 µM [falling, full curve, poor fit]
17 | O=C(CCOc1ccccc1)N(Cc1cccnc1)c1nc2c(F)cccc2s1 |  | 11.2 µM [falling, partial curve, poor fit]
18 | Cc1ccc(C(=O)N(CC(=O)Nc2ccc(Cl)c(Cl)c2)Cc2ccco2)cc1 | 35.5 µM [rising, single point] | 
19 | CC(=O)c1cn(CC(=O)NCc2cccnc2)c2ccccc12 |  | 14.1 µM [rising, single point]
20 | c1ccc(Nc2ncnc3ccc(-c4ccoc4)cc23)cc1 | 14.1 µM [falling, partial curve] | 12.6 µM [falling, partial curve]
21 | CC(C)(C)c1ccc(C(=O)N2CCC(c3nc4ccccc4o3)CC2)cc1 |  | 0.631 µM [falling, partial curve, poor fit]
22 | CCOC(=O)c1ccc(-n2[nH]c(-c3ccccc3)cc2=O)cc1 | 28.2 µM [rising, single point] | 15.8 µM [rising, partial curve]
23 | O=C(CCC1N=C2c3ccccc3N=C(SCc3ccccc3F)N2C1=O)NCc1ccc(F)cc1 (configuration not stated) |  | 6.31 µM [falling, full curve]
24 | Cc1nc(-n2[nH]c3c(c2=O)CCCC3)[nH]c(=O)c1Cc1ccccc1 | 22.4 µM [falling, partial curve] | 
25 | COc1ccc(NC(=O)c2c(NCc3cccc(OC)c3)sc3c2CCCC3)cc1 |  | 35.5 µM [rising, single point]
26 | Cc1c(NC(=O)COC(=O)c2ccc(Br)o2)c(=O)n(-c2ccccc2)n1C | 0.0112 µM [rising, full curve, poor fit] | 0.0126 µM [rising, full curve, poor fit]
27 | Clc1ccc(-c2nn3c(-c4ccncc4)nnc3s2)c(Cl)c1 | 2.51 µM [rising, single point] | 

Five entries from above in another layout.

| Row | SMILES | AC50 [1] | AC50 [2] |
| --- | --- | --- | --- |
| 1 | COc1ccc(N=C2S/C(=C\c3ccc(N4CCOCC4)o3)C(=O)N2CCc2c[nH]c3ccccc23)cc1 | 10 µM [falling, partial curve] | 7.08 µM [falling, partial curve] |
| 2 | CC(C)(C)OC(=O)N1CCC(c2c(C(=O)NCCN3CCC(Cc4ccccc4)CC3)cnn2-c2ccccc2)CC1 | 20 µM [falling, single point] | 22.4 µM [falling, single point] |
| 3 | CCc1ccc(NC(=O)N2CC(C)Oc3ccc(C)cc32)cc1 (configuration not stated) | 12.6 µM [falling, partial curve, poor fit] | 12.6 µM [falling, partial curve, poor fit] |
| 4 | Cc1nc(-c2ccccc2)cn2c1nc1ccccc12 |  | 0.0501 µM [rising, full curve, poor fit] |
| 5 | O=C(O)/C=C/C(=O)N1CCN(c2ccc(F)cc2)CC1 |  | 0.00316 µM [rising, full curve, poor fit] |

(listing goes on)

Row | SMILES | AC50 [1] | AC50 [2]
28 | COc1cc(NC(=O)C2CCCN(S(=O)(=O)c3cccc4nsnc34)C2)cc(OC)c1 (configuration not stated) | 12.6 µM [rising, partial curve] | 14.1 µM [rising, partial curve]
29 | CC1=C(c2ccc(Cl)cc2)S(=O)(=O)N=C1N1CCC(C(=O)NCc2ccccc2F)CC1 | 35.5 µM [falling, single point] | 0.00794 µM [falling, full curve, poor fit]
30 | O=C1[C@@H]2[C@@H]3C[C@@H]([C@H]4ON=C(c5ccc(Cl)cc5Cl)[C@@H]34)[C@@H]2C(=O)N1C1CCCCC1 | 35.5 µM [rising, single point] | 31.6 µM [rising, single point]
31 | CC1CCCCN1c1nnc(N)s1 (configuration not stated) | 31.6 µM [rising, single point] | 
32 | Cc1cccc2nc(-c3cccnc3)c(NCCC(C)C)n12 |  | 8.91 µM [falling, partial curve]
33 | O=C(CSc1ccc2c(c1)OCCO2)Nc1ncc(Cl)cc1Cl |  | 15.8 µM [rising, partial curve]
34 | COc1cc(/C=N/NC(=O)CCOc2ccccc2C)cc(Br)c1O | 20 µM [falling, partial curve, poor fit] | 0.0224 µM [falling, full curve, poor fit]
35 | O=C(O)c1cccc(N/N=C/c2cccnc2)c1 | 0.02 µM [rising, full curve, poor fit] | 
36 | CCCCn1nnc(NC(=O)c2sc3cc(Cl)ccc3c2Cl)n1 |  | 12.6 µM [rising, single point]
37 | COC1=C(Nc2ccc(O)cc2)C(=O)c2ccccc2C1=O |  | 20 µM [rising, single point]
38 | COc1ccc(S(=O)(=O)N2CCSC2c2ccc(OC)c(OC)c2)cc1 (configuration not stated) |  | 28.2 µM [rising, single point]
39 | COc1cc(NC(=O)CC(C)n2nc(C)cc2C)cc(OC)c1 (configuration not stated) | 0.631 µM [falling, partial curve] | 
40 | CCCC1=NN2C(=N)/C(=C\c3cc(C)n(-c4cc(C)cc(C)c4)c3C)C(=O)N=C2S1 | 35.5 µM [falling, single point] | 35.5 µM [falling, single point]
41 | Cc1cc(C)c(C)c(OCc2nc(-c3cccnc3)no2)c1 |  | 28.2 µM [rising, single point]
42 | CCCOc1cccc(-c2nn(-c3ccccc3)cc2/C=C(\C#N)C(=O)NCCCn2ccnc2)c1 | 22.4 µM [rising, single point] | 35.5 µM [rising, single point]
43 | COc1cccc(C(=O)/C=C/Nc2ccc(S(=O)(=O)Nc3ncccn3)cc2)c1 | 3.16 µM [rising, single point] | 2.82 µM [rising, single point]
44 | Cc1ccc2c(c1)C(O)(c1c(C)[nH]c3ccccc13)C(=O)N2 (configuration not stated) | 0.708 µM [rising, full curve, poor fit] | 11.2 µM [rising, partial curve]
45 | CC1(Cn2ccnn2)[C@H](C(=O)O)N2C(=O)C[C@H]2S1(=O)=O (some centres not stated) | 0.282 µM [rising, partial curve, poor fit] | 
46 | COc1ccc(CCn2c(C)cc(C(=O)CSc3nnc(N)s3)c2C)cc1 | 11.2 µM [rising, partial curve, poor fit] | 22.4 µM [rising, single point]
47 | CCc1ccc(N2C(=O)CN(Cc3cc(OC)c(OC)c(OC)c3)C2=S)cc1 | 14.1 µM [rising, single point] | 15.8 µM [rising, partial curve]
48 | CN1C(=O)C2(N=c3ccccc3=N2)c2ccccc21 |  | 17.8 µM [rising, partial curve]
49 | Cc1ccccc1NC1=C(C(=O)c2ccccc2)N(C)S(=O)(=O)c2ccccc21 | 35.5 µM [rising, single point] | 
50 | CCCCCCCC#Cc1ccccc1/C=N/S(=O)c1ccc(C)cc1 (configuration not stated) | 14.1 µM [rising, partial curve, poor fit] | 
51 | Cc1ccc(C)c(NC(=S)N2CCCCC2CO)c1 (configuration not stated) |  | 2.82 µM [rising, partial curve, poor fit]
52 | Cc1cc(/C=C2/NC(=O)N(c3ccccc3)C2=O)c(C)n1C(C)C |  | 35.5 µM [rising, single point]
53 | C=C(C)Cn1c(SCC(=O)N/N=C/c2c(O)ccc3ccccc23)nc2ccccc2c1=O |  | 5.62 µM [rising, single point]
54 | COc1cc2c(cc1OC)C(c1ccc(-c3ccc(Cl)cc3Cl)o1)=NCC2 | 14.1 µM [falling, single point] | 
